In PMC11407766, “OsNF-YB7 inactivates OsGLK1 to inhibit chlorophyll biosynthesis in rice embryo”:

Tests used:
[1] = target: C-terminus of OsNF-YB7 fused with the GAL4 DNA-binding domain (rice (Oryza sativa)); test: two-hybrid; yeast AH109; OsNF-YB7 (full length or truncated) as BD bait in pGBKT7, OsGLK1/2 (full length or truncated) as AD prey in pGADT7; growth on SD/-Leu-Trp-His, 3 days at 28 °C
[2] = target: OsNF-YB7 fused with the GAL4 DNA-binding domain (BD), full length (rice (Oryza sativa)); test: as above
[3] = target: nYFP-OsNF-YB7 (rice (Oryza sativa)); test: split reporter; BiFC; nYFP-OsNF-YB7 and cYFP-OsGLK1 transiently coexpressed in N. benthamiana leaf epidermal cells, YFP by confocal microscopy 48 hr after infiltration
[4] = target: OsNF-YB7-GFP (rice (Oryza sativa)); test: co-IP; OsNF-YB7-GFP and OsGLK1-Flag coexpressed in rice protoplasts; lysate (50 mM Tris-HCl, 150 mM NaCl, 5 mM EDTA pH 8.0, 1% NP-40) on GFP-Trap agarose beads, 4 °C, 3 hr; blots with anti-GFP and anti-Flag
[5] = target: cLUC-OsNF-YB7 (rice (Oryza sativa)); test: split reporter; split complementary luciferase; nLUC-OsGLK1/2 and cLUC-OsNF-YB7 co-infiltrated into N. benthamiana leaves, LUC activity imaged after 48 hr

B1: OsGLK1 fused with the yeast GAL4 activation domain (AD), full length (protein, UniProt Q5Z5I4 1-455)
chain: MLAVSPAMCPDIEDRAAVAGDAGMEVVGMSSDDMDQFDFSVDDIDFGDFFLRLEDGDVLPDLEVDPAEIFTDFEAIATSGGEGVQDQEVPTVELLAPADDVGVLDPCGDVVVGEENAAFAGAGEEKGGCNQDDDAGEANVDDGAAAVEAKSSSPSSTTSSSQEAESRHKSSSKSSHGKKKAKVDWTPELHRRFVQAVEQLGIDKAVPSRILEIMGIDSLTRHNIASHLQKYRSHRKHMIAREAEAASWTQRRQIYAAGGGAVAKRPESNAWTVPTIGFPPPPPPPPSPAPIQHFARPLHVWGHPTMDPSRVPVWPPRHLVPRGPAPPWVPPPPPSDPAFWHHPYMRGPAHVPTQGTPCMAMPMPAARFPAPPVPGVVPCPMYRPLTPPALASKNQQDAQLQLQVQPSSESIDAAIGDVLSKPWLPLPLGLKPPSVDSVMGELQRQGVANVPPACG
What does the source list for B1?
binding [1]: binds; binding [2]: binds

B2: cYFP-OsGLK1 (protein, UniProt Q5Z5I4 1-455)
chain: B1 chain
Which binding [3] does the source give for B2 here?
Its binding is “binds”.

B3: OsGLK1-Flag (protein, UniProt Q5Z5I4 1-455)
chain: B1 chain
How did the binding [4] turn out when B3 was run?
The binding was “binds”.

B4: OsGLK2 in pGADT7 (GAL4 activation domain fusion) (protein, UniProt Q5NAN5 1-539)
chain: MLEVSTLRSPKADQRAGVGGHHVVGFVPAPPSPADVADEVDAFIVDDSCLLEYIDFSCCDVPFFHADDGDILPDLEVDPTELLAEFASSPDDEPPPTTSAPGPGEPAAAAGAKEDVKEDGAAAAAAAAAADYDGSPPPPRGKKKKDDEERSSSLPEEKDAKNGGGDEVLSAVTTEDSSAGAAKSCSPSAEGHSKRKPSSSSSSAAAGKNSHGKRKVKVDWTPELHRRFVQAVEQLGIDKAVPSRILELMGIECLTRHNIASHLQKYRSHRKHLMAREAEAASWTQKRQMYTAAAAAAAVAAGGGPRKDAAAATAAVAPWVMPTIGFPPPHAAAMVPPPPHPPPFCRPPLHVWGHPTAGVEPTTAAAPPPPSPHAQPPLLPVWPRHLAPPPPPLPAAWAHGHQPAPVDPAAYWQQQYNAARKWGPQAVTPGTPCMPPPLPPAAMLQRFPVPPVPGMVPHPMYRPIPPPSPPQGNKLAALQLQLDAHPSKESIDAAIGDVLVKPWLPLPLGLKPPSLDSVMSELHKQGIPKVPPAASGAAG
Which binding [2] does the source give for B4 here?
The binding was “binds”.

B5: nLUC-OsGLK1 (protein, UniProt Q5Z5I4 1-455)
chain: B1 chain
How did the binding [5] turn out when B5 was run?
The binding was “binds”.

B6: nLUC-OsGLK2 (protein, UniProt Q5NAN5 1-539)
chain: B4 chain
Which binding [5] does the source give for B6 here?
Its binding is “binds”.

No constants are given. Whether binding was seen depends on the method and setting. Binding can be weak; no strength is given. Tags and fused reporters may be left off the sequences shown. For some of these results: Binding seen in cells or lysates may run through a third protein.
